According to the supplement of paper PMC12819154, “High-throughput peptide-centric local stability assay extends protein–ligand identification to membrane proteins, tissues and bacteria” (Nature Structural & Molecular Biology, 2025):
The other results are listed elsewhere or left out. Most entries show no effect beyond the scatter of the controls.

Chains of the proteins cited; added tags and fusions are not shown. Lines headed by an entry give the natural chain unless they say otherwise; changes in a name come on top.
UniProt Q92887: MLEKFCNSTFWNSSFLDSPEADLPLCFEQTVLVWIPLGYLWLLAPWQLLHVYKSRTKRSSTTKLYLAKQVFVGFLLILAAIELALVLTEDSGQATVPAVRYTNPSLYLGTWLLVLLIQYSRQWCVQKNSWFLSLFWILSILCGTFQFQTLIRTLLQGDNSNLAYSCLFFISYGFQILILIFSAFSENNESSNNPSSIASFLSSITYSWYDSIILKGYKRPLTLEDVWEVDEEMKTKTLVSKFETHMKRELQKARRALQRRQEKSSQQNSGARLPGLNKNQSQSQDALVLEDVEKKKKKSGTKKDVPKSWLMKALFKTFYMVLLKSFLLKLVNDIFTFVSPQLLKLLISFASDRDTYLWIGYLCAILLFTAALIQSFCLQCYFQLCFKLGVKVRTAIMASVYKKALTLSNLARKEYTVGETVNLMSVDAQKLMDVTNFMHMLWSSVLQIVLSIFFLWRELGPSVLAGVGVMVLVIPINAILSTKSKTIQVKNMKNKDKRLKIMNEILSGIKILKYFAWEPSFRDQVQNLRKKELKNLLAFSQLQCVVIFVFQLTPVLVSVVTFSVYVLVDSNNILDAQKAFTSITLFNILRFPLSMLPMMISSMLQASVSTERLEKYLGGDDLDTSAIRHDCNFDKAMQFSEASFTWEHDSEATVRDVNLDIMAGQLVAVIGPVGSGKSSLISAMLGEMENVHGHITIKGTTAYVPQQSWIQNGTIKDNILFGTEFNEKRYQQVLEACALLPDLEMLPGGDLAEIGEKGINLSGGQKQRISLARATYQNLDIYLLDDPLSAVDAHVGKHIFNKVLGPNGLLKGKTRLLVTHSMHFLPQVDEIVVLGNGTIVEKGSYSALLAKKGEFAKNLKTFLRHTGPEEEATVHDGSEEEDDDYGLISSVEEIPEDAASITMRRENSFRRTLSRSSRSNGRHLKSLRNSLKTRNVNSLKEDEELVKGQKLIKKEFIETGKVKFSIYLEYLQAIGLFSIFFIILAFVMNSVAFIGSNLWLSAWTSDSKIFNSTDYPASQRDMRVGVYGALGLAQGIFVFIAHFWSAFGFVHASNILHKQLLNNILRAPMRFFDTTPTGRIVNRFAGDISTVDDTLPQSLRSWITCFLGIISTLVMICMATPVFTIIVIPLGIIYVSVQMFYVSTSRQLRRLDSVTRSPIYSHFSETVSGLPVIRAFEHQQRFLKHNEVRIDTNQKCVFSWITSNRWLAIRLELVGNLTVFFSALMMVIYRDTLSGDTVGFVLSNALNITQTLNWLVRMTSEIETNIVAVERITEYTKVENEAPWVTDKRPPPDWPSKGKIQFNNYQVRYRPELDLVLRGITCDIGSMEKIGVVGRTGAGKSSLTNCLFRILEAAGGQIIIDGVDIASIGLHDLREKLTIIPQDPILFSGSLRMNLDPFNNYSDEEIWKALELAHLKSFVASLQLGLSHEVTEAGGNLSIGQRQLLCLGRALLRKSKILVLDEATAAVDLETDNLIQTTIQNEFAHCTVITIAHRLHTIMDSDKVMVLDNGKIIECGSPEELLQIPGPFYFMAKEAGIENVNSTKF
UniProt Q92831, whole entry, looked up: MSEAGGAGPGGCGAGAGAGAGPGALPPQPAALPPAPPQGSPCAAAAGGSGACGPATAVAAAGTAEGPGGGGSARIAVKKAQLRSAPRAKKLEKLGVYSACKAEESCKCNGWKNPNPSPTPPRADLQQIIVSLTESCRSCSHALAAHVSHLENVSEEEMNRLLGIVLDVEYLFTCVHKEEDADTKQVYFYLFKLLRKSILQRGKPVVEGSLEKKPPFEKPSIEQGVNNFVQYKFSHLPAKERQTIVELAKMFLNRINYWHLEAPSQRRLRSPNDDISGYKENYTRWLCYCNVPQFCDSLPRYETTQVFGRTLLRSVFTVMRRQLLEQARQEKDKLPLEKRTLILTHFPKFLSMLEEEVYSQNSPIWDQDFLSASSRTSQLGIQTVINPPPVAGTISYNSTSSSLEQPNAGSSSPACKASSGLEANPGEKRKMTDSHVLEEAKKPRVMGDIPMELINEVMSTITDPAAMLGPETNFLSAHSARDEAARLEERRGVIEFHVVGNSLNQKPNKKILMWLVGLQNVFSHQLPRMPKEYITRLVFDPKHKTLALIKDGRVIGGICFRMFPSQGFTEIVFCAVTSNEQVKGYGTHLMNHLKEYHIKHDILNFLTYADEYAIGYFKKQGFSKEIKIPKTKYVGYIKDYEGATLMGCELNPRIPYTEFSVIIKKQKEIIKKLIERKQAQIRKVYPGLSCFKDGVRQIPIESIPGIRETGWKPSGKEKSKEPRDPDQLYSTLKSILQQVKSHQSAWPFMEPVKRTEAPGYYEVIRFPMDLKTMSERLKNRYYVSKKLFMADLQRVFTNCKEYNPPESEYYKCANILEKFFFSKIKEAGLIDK
UniProt Q969H6: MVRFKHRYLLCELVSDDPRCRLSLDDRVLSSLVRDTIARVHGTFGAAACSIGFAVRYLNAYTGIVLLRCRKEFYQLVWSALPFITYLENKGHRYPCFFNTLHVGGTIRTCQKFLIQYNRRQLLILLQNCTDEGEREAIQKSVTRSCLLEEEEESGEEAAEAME
UniProt Q96GE4: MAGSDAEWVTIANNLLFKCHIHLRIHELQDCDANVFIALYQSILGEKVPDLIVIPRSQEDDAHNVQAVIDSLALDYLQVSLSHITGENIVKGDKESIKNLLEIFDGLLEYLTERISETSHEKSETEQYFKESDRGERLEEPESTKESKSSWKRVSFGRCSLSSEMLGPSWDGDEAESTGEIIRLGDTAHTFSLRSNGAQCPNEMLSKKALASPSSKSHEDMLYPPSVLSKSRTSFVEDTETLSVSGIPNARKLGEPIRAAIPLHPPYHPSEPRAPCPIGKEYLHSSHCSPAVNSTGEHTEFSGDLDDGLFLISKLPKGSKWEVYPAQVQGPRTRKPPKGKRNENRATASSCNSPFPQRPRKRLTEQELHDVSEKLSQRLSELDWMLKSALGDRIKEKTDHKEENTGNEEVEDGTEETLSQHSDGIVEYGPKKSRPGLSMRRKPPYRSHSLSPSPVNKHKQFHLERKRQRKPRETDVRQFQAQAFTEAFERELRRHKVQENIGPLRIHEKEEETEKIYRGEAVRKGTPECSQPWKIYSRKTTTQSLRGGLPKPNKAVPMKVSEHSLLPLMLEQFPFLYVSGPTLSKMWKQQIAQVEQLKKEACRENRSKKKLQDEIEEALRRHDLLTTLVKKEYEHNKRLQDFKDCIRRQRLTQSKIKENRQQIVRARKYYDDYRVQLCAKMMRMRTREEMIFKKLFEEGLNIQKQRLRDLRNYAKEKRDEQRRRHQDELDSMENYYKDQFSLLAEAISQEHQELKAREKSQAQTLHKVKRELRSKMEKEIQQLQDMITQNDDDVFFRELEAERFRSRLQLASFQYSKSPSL
UniProt Q96CK0: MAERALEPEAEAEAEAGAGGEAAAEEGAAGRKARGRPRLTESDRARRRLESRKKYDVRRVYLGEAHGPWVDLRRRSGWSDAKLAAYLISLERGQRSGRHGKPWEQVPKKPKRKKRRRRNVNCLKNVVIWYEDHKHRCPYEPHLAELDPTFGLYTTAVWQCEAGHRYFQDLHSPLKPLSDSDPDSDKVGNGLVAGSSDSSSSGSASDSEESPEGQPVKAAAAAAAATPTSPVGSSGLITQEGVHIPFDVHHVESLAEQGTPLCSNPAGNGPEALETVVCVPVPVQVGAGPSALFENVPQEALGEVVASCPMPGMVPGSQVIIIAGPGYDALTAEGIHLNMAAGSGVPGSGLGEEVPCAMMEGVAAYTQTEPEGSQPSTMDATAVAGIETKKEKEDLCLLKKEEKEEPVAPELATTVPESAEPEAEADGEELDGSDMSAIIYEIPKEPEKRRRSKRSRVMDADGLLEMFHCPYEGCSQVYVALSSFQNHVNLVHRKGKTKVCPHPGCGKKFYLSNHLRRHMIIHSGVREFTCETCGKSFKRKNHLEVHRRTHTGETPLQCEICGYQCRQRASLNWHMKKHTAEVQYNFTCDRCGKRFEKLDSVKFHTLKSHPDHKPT
UniProt Q969Q6: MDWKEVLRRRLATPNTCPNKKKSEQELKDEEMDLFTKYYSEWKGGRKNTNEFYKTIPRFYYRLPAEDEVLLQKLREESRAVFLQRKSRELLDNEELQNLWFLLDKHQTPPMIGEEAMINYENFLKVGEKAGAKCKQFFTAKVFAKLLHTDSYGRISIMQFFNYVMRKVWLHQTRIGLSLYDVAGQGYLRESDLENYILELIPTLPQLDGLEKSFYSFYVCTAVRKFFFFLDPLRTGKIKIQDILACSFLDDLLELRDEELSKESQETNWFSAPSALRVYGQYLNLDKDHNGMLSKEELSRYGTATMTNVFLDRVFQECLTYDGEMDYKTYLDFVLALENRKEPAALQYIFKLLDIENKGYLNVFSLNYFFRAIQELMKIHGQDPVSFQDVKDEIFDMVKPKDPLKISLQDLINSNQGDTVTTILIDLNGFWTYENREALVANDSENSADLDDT
UniProt Q96C00: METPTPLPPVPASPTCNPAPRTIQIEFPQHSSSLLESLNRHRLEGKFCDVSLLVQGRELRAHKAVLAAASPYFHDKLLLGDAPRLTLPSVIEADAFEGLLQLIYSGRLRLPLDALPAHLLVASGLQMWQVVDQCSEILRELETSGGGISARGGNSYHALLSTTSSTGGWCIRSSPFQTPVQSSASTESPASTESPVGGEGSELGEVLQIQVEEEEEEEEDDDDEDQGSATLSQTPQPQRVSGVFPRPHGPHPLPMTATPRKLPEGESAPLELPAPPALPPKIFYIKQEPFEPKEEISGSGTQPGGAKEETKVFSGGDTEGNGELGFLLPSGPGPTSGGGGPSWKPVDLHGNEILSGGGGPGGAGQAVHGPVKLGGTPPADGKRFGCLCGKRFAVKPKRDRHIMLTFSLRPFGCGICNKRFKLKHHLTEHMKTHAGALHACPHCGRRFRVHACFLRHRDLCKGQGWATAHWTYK
UniProt Q96CN4: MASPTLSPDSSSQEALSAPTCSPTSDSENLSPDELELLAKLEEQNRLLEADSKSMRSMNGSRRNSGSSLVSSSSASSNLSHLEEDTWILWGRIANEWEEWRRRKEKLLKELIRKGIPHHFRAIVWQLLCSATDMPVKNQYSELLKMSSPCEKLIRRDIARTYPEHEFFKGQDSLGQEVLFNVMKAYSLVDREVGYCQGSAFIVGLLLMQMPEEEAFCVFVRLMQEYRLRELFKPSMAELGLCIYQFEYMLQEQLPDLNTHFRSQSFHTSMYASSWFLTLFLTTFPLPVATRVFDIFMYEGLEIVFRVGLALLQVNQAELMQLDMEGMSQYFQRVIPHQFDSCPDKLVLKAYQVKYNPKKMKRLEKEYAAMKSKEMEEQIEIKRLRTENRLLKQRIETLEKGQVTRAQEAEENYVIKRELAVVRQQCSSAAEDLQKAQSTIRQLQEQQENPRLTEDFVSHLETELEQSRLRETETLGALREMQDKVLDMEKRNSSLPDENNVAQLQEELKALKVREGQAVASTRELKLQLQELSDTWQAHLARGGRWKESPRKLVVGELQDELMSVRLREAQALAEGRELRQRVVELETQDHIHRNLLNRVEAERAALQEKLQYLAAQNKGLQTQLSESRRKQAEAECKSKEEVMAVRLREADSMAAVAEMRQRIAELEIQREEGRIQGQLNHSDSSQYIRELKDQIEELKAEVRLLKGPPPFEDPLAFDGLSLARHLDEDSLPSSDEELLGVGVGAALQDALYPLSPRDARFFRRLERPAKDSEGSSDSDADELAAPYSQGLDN

The targets below were run with CN[C@@H]1C[C@H]2O[C@@](C)([C@@H]1OC)n1c3ccccc3c3c4c(c5c6ccccc6n2c5c31)C(=O)NC4 [staurosporine] (assay: log2 fold change of tryptic peptide abundance, ligand vs vehicle (limited proteolysis) (log2 ratio); higher = more trypsin-susceptible (destabilized)). Conditions: ligand concentration: 20 uM; sample: K562 cleared lysate; digestion: 4 min, 22 C (HT-PELSA RT4min, Orbitrap Astral).
“ABCC2 (peptide sequence: KGEFAKNLK, peptide start residue: 852) (UniProt Q92887)” showed a log2 fold change of 0.222.
Target “RPL36AL (peptide sequence: GKDSLYAQGR, peptide start residue: 29) (UniProt Q969Q0)” has a log2 fold change of 0.0913.
“UniProt Q92831 (peptide sequence: GKPVVEGSLEK, peptide start residue: 202)” was tested, and the log2 fold change was 0.403.
Target “POP5 (peptide sequence: VHGTFGAAACSIGFAVR, peptide start residue: 40) (UniProt Q969H6)” has a log2 fold change of -0.433.
“UniProt Q96GE4 (peptide sequence: HKVQENIGPLR, peptide start residue: 495)” was tested, and the log2 fold change was 0.528.
Target “UniProt Q96CK0 (peptide sequence: LAAYLISLER, peptide start residue: 83)” has a log2 fold change of -0.197.
Work on “PPP2R3C (peptide sequence: LATPNTCPNK, peptide start residue: 11) (UniProt Q969Q6)” yielded a log2 fold change of 0.588.
With “ZBTB9 (peptide sequence: EEISGSGTQPGGAKEETK, peptide start residue: 294) (UniProt Q96C00)” the log2 fold change was 0.593.
Target “EVI5L (peptide sequence: LQLQELSDTWQAHLAR, peptide start residue: 527) (UniProt Q96CN4)” has a log2 fold change of -0.871.
